Measurements reported in the supplement of paper PMC10849652.
This is one part of the list.

Protein sequences, listed by entry. Tags and fused reporters are not part of them. Lines headed by an entry give the natural chain unless they say otherwise; changes in a name come on top.
UniProt P0DPB6, whole entry, looked up: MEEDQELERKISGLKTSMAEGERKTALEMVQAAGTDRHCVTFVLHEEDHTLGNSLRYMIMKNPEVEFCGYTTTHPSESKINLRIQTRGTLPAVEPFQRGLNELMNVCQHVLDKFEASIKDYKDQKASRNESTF
UniProt Q9H9Y6, whole entry, looked up: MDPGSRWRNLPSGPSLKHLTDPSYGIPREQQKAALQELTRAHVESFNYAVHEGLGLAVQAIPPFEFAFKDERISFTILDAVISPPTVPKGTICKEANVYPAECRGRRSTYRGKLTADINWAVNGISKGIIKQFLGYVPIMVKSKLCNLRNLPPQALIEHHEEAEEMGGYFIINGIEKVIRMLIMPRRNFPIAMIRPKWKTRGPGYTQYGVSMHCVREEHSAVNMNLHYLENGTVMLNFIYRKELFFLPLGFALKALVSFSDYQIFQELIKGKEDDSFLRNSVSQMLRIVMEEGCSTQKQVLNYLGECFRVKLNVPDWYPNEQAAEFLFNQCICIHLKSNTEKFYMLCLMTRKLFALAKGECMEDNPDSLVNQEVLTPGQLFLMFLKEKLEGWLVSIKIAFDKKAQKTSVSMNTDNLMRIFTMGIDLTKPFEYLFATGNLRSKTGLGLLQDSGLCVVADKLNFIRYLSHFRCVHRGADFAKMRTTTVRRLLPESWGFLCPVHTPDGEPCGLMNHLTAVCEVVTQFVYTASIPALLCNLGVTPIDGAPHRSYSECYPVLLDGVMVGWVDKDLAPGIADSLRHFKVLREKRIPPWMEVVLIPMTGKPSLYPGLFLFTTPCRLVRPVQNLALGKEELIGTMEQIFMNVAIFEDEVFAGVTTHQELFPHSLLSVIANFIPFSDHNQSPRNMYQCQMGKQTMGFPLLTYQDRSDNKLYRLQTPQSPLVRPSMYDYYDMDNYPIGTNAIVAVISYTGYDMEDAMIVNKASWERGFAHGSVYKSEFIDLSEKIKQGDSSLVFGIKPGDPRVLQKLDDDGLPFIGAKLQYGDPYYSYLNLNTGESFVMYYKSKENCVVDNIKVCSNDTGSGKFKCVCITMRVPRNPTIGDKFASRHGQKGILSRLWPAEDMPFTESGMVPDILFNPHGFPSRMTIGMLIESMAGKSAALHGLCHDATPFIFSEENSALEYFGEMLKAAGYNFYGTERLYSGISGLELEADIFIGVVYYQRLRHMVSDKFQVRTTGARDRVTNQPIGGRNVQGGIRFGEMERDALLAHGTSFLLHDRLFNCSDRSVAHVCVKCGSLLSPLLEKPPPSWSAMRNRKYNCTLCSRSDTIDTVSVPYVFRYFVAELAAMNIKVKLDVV
UniProt Q10713: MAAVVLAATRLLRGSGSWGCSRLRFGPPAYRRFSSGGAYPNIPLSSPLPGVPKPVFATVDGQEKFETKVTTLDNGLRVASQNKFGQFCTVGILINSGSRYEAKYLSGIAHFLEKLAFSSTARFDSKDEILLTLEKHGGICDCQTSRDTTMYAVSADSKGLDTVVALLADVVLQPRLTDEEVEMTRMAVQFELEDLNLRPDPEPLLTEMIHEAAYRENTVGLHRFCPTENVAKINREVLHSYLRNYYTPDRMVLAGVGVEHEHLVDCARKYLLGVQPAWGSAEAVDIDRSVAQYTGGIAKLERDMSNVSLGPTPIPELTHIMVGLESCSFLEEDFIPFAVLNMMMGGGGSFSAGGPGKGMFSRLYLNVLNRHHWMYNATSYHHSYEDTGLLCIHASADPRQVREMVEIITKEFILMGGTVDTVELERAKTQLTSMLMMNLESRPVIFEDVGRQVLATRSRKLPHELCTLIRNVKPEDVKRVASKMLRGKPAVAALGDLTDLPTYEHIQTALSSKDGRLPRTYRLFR
UniProt O75417: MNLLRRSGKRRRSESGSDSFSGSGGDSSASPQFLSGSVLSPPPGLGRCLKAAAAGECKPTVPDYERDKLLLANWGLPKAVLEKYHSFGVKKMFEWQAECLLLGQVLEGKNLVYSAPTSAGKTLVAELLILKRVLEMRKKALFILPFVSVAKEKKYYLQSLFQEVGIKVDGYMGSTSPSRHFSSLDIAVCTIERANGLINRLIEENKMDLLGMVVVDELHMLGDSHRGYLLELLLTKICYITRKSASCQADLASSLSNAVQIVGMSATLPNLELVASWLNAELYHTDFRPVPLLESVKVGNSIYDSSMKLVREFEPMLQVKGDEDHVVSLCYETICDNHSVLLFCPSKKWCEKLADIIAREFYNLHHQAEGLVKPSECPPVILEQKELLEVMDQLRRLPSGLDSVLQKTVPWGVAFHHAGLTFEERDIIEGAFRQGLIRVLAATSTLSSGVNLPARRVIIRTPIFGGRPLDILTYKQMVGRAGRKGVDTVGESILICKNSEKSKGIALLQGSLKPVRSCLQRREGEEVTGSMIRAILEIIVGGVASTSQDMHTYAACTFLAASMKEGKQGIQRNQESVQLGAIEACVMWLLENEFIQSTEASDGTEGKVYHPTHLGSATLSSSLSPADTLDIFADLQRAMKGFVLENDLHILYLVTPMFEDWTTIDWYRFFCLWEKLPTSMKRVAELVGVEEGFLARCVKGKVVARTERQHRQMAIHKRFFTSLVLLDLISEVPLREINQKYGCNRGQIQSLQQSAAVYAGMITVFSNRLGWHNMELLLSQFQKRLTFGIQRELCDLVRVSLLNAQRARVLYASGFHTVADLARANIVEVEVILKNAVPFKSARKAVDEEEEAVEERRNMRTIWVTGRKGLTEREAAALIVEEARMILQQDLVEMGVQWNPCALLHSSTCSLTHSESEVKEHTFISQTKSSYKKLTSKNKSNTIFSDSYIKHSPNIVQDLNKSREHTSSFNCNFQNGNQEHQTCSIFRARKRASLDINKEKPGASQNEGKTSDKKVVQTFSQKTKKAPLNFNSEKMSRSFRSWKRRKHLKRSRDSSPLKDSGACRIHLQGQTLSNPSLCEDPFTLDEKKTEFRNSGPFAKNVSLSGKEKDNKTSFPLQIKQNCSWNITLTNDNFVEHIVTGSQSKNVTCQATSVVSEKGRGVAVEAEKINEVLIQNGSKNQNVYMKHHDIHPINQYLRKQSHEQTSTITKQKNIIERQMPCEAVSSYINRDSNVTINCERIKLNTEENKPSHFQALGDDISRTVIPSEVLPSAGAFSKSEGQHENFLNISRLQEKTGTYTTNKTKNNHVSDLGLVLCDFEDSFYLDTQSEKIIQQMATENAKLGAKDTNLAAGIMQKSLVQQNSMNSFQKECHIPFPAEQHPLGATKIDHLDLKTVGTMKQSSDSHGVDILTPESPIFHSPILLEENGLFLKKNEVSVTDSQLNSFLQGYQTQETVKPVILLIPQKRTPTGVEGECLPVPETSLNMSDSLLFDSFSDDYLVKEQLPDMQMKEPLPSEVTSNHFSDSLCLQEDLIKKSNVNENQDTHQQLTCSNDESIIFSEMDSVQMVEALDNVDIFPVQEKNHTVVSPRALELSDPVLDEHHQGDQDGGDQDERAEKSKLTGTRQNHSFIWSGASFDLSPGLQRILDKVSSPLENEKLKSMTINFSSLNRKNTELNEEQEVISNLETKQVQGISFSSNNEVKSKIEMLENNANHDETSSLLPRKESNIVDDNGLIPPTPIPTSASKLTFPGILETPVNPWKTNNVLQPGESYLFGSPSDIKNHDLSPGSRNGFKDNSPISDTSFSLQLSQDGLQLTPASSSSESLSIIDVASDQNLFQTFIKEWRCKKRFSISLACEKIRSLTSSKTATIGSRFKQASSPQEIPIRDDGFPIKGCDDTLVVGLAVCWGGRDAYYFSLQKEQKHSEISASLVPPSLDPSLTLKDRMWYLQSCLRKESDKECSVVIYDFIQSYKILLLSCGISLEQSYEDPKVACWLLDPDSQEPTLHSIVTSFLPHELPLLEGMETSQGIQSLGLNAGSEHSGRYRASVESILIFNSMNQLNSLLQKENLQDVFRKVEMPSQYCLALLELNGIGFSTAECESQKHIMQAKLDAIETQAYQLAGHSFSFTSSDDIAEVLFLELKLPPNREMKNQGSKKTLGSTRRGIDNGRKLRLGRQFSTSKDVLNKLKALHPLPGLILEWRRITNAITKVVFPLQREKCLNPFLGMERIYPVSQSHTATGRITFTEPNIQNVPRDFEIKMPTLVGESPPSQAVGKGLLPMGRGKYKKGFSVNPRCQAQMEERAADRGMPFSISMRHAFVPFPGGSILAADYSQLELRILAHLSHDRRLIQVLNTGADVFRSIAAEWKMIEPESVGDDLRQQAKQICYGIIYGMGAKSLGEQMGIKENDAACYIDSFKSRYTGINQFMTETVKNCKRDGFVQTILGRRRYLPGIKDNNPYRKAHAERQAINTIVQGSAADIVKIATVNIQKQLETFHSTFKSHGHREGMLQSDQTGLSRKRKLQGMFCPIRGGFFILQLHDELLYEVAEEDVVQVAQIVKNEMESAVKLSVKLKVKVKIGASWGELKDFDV
UniProt P56282: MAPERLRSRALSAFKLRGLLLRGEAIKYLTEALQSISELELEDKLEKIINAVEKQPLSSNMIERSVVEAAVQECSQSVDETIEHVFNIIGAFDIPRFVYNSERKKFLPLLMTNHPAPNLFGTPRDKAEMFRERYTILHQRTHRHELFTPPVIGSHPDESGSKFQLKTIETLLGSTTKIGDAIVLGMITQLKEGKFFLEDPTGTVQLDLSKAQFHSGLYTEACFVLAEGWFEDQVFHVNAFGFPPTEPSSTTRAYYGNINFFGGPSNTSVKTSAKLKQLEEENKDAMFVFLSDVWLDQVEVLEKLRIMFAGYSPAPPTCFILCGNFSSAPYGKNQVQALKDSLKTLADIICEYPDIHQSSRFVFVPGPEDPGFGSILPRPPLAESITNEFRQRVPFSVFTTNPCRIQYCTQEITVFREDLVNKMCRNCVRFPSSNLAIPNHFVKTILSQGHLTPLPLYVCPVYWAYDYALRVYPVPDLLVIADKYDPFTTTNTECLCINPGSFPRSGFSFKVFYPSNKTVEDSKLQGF
UniProt Q13427: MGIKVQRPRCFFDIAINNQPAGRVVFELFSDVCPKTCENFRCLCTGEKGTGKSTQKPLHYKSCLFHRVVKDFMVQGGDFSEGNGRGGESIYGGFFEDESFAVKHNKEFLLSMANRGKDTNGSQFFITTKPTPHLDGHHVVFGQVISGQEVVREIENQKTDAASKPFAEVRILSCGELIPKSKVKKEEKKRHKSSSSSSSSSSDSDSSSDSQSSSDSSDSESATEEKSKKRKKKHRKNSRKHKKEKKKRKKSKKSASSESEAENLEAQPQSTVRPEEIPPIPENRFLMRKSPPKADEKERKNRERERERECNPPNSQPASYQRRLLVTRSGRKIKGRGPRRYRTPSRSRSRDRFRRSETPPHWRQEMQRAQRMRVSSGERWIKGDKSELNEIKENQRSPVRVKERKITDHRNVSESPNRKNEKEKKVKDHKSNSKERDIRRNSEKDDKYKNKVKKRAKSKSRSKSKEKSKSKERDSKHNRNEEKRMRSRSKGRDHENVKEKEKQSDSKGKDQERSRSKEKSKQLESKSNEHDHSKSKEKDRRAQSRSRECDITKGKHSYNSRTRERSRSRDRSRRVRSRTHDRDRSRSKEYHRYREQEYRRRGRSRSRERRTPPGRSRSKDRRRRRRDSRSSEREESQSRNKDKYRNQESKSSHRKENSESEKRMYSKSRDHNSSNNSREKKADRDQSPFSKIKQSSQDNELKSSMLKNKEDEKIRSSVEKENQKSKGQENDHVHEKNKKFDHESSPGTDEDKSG
UniProt Q9BT43: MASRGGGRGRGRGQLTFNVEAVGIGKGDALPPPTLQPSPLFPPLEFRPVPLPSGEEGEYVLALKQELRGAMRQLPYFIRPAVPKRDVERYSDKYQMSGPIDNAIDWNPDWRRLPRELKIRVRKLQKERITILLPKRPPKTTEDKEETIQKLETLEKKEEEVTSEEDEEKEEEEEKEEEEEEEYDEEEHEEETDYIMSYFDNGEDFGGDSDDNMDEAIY
POLG, A0A3B3IS91, UniProt A0A3B3IS91, whole entry, looked up: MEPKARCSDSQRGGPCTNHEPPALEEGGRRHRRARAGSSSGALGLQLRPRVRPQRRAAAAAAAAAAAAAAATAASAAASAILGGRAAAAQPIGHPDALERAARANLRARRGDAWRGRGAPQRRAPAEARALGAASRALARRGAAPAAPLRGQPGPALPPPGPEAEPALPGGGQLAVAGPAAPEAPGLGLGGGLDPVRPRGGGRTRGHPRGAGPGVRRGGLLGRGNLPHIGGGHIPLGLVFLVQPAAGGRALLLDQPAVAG
UniProt Q9GZS1, whole entry, looked up: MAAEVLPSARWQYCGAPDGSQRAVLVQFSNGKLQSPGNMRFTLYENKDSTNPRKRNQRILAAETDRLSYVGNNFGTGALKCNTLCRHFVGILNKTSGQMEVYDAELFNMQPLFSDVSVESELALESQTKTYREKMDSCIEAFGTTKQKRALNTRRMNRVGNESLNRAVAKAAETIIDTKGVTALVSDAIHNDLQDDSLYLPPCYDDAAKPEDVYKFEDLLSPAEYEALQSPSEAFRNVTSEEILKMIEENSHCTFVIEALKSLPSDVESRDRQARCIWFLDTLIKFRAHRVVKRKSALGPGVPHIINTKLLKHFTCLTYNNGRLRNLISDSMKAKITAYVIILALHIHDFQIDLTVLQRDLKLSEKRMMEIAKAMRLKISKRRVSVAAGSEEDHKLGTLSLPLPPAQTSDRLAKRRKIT

Columns and labels:
Assay in all cases: log2 fold change, soluble protein after heating vs DMSO (PISA); higher = thermal stabilisation; K562 cells, 10 uM, 30 min; active = over 0.2 and 3.5 SD of the protein, either way, in both replicates (recomputed)
[1] = compound: CC1=C(C=C(C=C1)NC(=O)C2=CC(=CC=C2)C(C)(C)C#N)NC3=CC4=C(C=C3)N=CN(C4=O)C
Procedure, shortened: (§1)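 Quantification of soluble protein used TMTpro 16plex LC-MS/MS, with channel sums equalised. Samples were the supernatant after 21,000xg for 90 min of pooled aliquots from K562 cells (2×10^6 cells/mL) treated with 10 μM compound for 30 min, heated for 3 min over 48°C-58°C, and extracted in PBS with 0.5% NP-40 at 4°C. Values, from duplicates, describe thermal stability against control samples on a log2 fold-change scale.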

[2] = compound: CC1=CC=C(C=C1)SC2=C3C=C(SC3=CN=C2)C(=O)N
Procedure, shortened: as §1

Nexturastat A = compound: CCCCN(Cc1ccc(C(=O)NO)cc1)C(=O)Nc1ccccc1 [Nexturastat A]
Procedure, shortened: as §1

[3] = compound: CCCS(=O)(=O)Nc1ccc(F)c(C(=O)c2c[nH]c3ncc(Cl)cc23)c1F
Procedure, shortened: as §1

[4] = compound: CCCc1cc(C)[nH]c(=O)c1CNC(=O)c1cc(-c2ccnc(N3CCN(C)CC3)c2)cc2c1cnn2C(C)C
Procedure, shortened: as §1

barasertib = compound: CCN(CCCOc1ccc2c(Nc3cc(CC(=O)Nc4cccc(F)c4)[nH]n3)ncnc2c1)CCOP(=O)(O)O [barasertib]
Procedure, shortened: as §1

[5] = compound: CC1=C(C=C(C=C1)NC(=O)C2=CC(=CC=C2)N(C)C)NC(=O)C3=CC=C(C=C3)O
Procedure, shortened: as §1

[6] = compound: CC1=NC(=CC=C1)C2=C(N=C(N2)C(C)(C)C)C3=CC4=NC=CN=C4C=C3
Procedure, shortened: as §1

vemurafenib = compound: CCCS(=O)(=O)Nc1ccc(F)c(C(=O)c2c[nH]c3ncc(-c4ccc(Cl)cc4)cc23)c1F [vemurafenib]
Procedure, shortened: as §1

givinostat = compound: CCN(CC)Cc1ccc2cc(COC(=O)Nc3ccc(C(=O)NO)cc3)ccc2c1 [givinostat]
Procedure, shortened: as §1

Measured: log2 fold change

PLIN3 isoform 2 (UniProt O60664)
inactive: [1] -0.237 | [2] -0.023 | Nexturastat A 0.135 | [3] -0.092 | [4] -0.376 | barasertib 0.057

POLR1D (UniProt P0DPB6)
inactive: [1] 0.086 | [5] -0.065 | [2] 0.138 | [6] 0.088 | Nexturastat A 0.126 | vemurafenib -0.173 | [3] 0.049 | [4] 0.085 | givinostat 0.029 | barasertib 0.043

PMAIP1 (UniProt Q13794)
inactive: [1] -0.014 | [5] 0.121 | [2] 0.123 | Nexturastat A 0.046 | vemurafenib -0.065 | [3] -0.039 | [4] -0.023 | givinostat 0.086 | barasertib -0.02

POLR1B isoform 3 (UniProt Q9H9Y6)
inactive: [1] 0.027 | [5] -0.069 | [6] -0.045 | Nexturastat A 0.133 | vemurafenib 0.093 | [4] 0 | givinostat 0.026

PPIC (UniProt P45877)
inactive: [1] -0.019 | [2] -0.074 | [6] 0.003 | Nexturastat A 0 | [3] -0.086 | [4] -0.099 | givinostat 0.022 | barasertib 0.006

POLR2M (UniProt P0CAP2)
inactive: [1] 0.007 | [5] -0.014 | [2] 0.027 | [6] 0 | Nexturastat A -0.019 | vemurafenib 0.021 | [3] -0.062 | [4] 0 | givinostat -0.031 | barasertib -0.009

PMPCA (UniProt Q10713)
inactive: [1] 0.046 | [5] -0.049 | [2] 0.014 | [6] 0.006 | Nexturastat A -0.102 | vemurafenib 0.025 | [3] 0.037 | [4] -0.006 | givinostat -0.019 | barasertib -0.027

POLR2L (UniProt P62875)
inactive: [1] -0.06 | [5] 0.17 | [2] 0.021 | Nexturastat A -0.043 | vemurafenib -0.117 | [3] 0.067 | [4] 0.038 | givinostat 0.067

PPFIA1 (UniProt Q13136)
inactive: [1] 0.011 | [5] 0.03 | [2] 0.019 | [6] -0.052 | Nexturastat A -0.012 | vemurafenib -0.031 | [3] 0.043 | [4] 0.085 | givinostat 0.136 | barasertib 0.035

PPIL4 (UniProt Q8WUA2)
inactive: [1] 0.006 | [5] -0.02 | [2] -0.06 | [6] -0.007 | Nexturastat A 0.145 | vemurafenib 0.001 | [3] 0 | [4] 0.04 | givinostat 0.045 | barasertib 0

PM20D2 (UniProt Q8IYS1)
inactive: [1] 0.069 | [5] 0.007 | givinostat -0.173

POLR2E (UniProt P19388)
inactive: [5] -0.094 | [2] 0 | [6] -0.091 | Nexturastat A 0.005 | vemurafenib 0.031 | [3] 0.018 | [4] 0.099 | givinostat -0.007 | barasertib -0.03

POLD4 (UniProt Q9HCU8)
inactive: [5] -0.033 | [2] 0.034 | [6] -0.011 | [3] -0.088 | [4] -0.029 | barasertib 0.088

POMT1 (UniProt Q9Y6A1)
inactive: [6] -0.105 | Nexturastat A 0.113 | vemurafenib -0.034 | [4] 0.021 | givinostat 0.032

PORCN (UniProt Q9H237)
inactive: [5] 0.133 | vemurafenib -0.08 | givinostat -0.166

PLXNA3 (UniProt P51805)
inactive: [1] -0.051 | [6] 0.19 | Nexturastat A 0.315 | [4] -0.077 | barasertib -0.27

POLQ (UniProt O75417)
inactive: [5] -0.106 | [4] -0.155 | barasertib 0.015

PLEKHJ1 (UniProt Q9NW61)
inactive: [5] 0.065 | [2] 0.042 | Nexturastat A -0.109 | [3] 0.174

POLE2 (UniProt P56282)
inactive: [5] 0.074 | [6] -0.108

PLS3 (UniProt H7C4N2)
inactive: [1] -0.09 | [6] -0.127 | Nexturastat A 0.065

10 successive records out of the list so far:
PPFIA1 (UniProt Q13136)
inactive: [1] 0.011 | [5] 0.03 | [2] 0.019 | [6] -0.052 | Nexturastat A -0.012 | vemurafenib -0.031 | [3] 0.043 | [4] 0.085 | givinostat 0.136 | barasertib 0.035

PPIL4 (UniProt Q8WUA2)
inactive: [1] 0.006 | [5] -0.02 | [2] -0.06 | [6] -0.007 | Nexturastat A 0.145 | vemurafenib 0.001 | [3] 0 | [4] 0.04 | givinostat 0.045 | barasertib 0

PM20D2 (UniProt Q8IYS1)
inactive: [1] 0.069 | [5] 0.007 | givinostat -0.173

POLR2E (UniProt P19388)
inactive: [5] -0.094 | [2] 0 | [6] -0.091 | Nexturastat A 0.005 | vemurafenib 0.031 | [3] 0.018 | [4] 0.099 | givinostat -0.007 | barasertib -0.03

POLD4 (UniProt Q9HCU8)
inactive: [5] -0.033 | [2] 0.034 | [6] -0.011 | [3] -0.088 | [4] -0.029 | barasertib 0.088

POMT1 (UniProt Q9Y6A1)
inactive: [6] -0.105 | Nexturastat A 0.113 | vemurafenib -0.034 | [4] 0.021 | givinostat 0.032

PORCN (UniProt Q9H237)
inactive: [5] 0.133 | vemurafenib -0.08 | givinostat -0.166

PLXNA3 (UniProt P51805)
inactive: [1] -0.051 | [6] 0.19 | Nexturastat A 0.315 | [4] -0.077 | barasertib -0.27

POLQ (UniProt O75417)
inactive: [5] -0.106 | [4] -0.155 | barasertib 0.015

PLEKHJ1 (UniProt Q9NW61)
inactive: [5] 0.065 | [2] 0.042 | Nexturastat A -0.109 | [3] 0.174

(cont.)

PPIG (UniProt Q13427)
inactive: [5] 0.011 | [2] 0.352 | [6] 0.027 | [3] -0.152 | [4] 0.025 | barasertib 0.288

POC1A (UniProt Q8NBT0)
inactive: [6] -0.007 | vemurafenib -0.086 | [4] 0.084 | barasertib -0.067

PMVK (UniProt Q15126)
inactive: [1] 0.006 | Nexturastat A 0.085 | vemurafenib -0.041 | [4] 0.016 | givinostat -0.068 | barasertib 0.014

POLR3GL (UniProt Q9BT43)
inactive: [1] -0.254 | [4] -0.293 | barasertib 0.125

PLPPR3 isoform 3 (UniProt Q6T4P5)
inactive: [5] -0.219 | Nexturastat A 0.078

PPIA isoform 2 (UniProt P62937)
inactive: [5] 0.035 | [2] -0.084 | Nexturastat A -0.085 | vemurafenib 0 | [3] -0.133 | [4] -0.296 | barasertib 0.093

POLRMT (UniProt O00411)
inactive: [1] 0.074 | [6] -0.222 | Nexturastat A 0.21 | vemurafenib 0.083

POLG, A0A3B3IS91
inactive: [4] 0.297 | givinostat 0.07

POLR1E isoform 1 (UniProt Q9GZS1)
inactive: [5] -0.086 | [2] 0.027 | vemurafenib 0.038 | [3] -0.104 | [4] 0.266

PLXND1 (UniProt Q9Y4D7)
inactive: [5] -0.153 | [6] 0.095 | vemurafenib -0.031 | [4] 0.207 | barasertib 0.078

POMT2 (UniProt Q9UKY4)
inactive: [5] 0.017 | [2] -0.099 | [6] -0.01 | vemurafenib 0.172 | [3] 0 | barasertib 0.133

PLGRKT (UniProt Q9HBL7)
inactive: [1] -0.001 | Nexturastat A -0.096 | [4] -0.466 | givinostat 0.024 | barasertib 0.035

PMS2CL (UniProt Q68D20)
inactive: [5] 0.089 | Nexturastat A -0.109 | [4] 0.129

POF1B isoform 1 (UniProt Q8WVV4)
inactive: vemurafenib 0.104 | [4] 0.13 | barasertib 0.44

POLR2J (UniProt P52435)
inactive: Nexturastat A -0.002 | [4] 0.037 | givinostat 0.053 | barasertib -0.032
